Measurements taken from publication PMC9444042 (Neurotoxicology, 2021).

Columns and labels:
[1] = test system: iPSC-derived human cortical glutamatergic neurons; experiment: cells; format: cell-based; conditions: Neuron, 48 h, read-out: IC50, neurite outgrowth inhibition
[2] = test system: iPSC-derived human spinal motor neurons; experiment: cells; format: cell-based; conditions: Neuron, 48 h, read-out: IC50, neurite outgrowth inhibition

SMILES: COc1cc2c(c(OC)c1OC)-c1ccc(OC)c(=O)cc1[C@@H](NC(C)=O)CC2 [Colchicine]
- IC50 [1]: 21.8 nM
- IC50 [2]: 55.8 nM
